Here are results for one sequence from article PMC9438803 (Life Science Alliance, 2021).

Chains of the proteins cited; added tags and fusions are not shown. Chains listed by the source or under a name are the forms on record and can include a tag or linker. Residues count along the entry.
UniProt O15446, 131-510: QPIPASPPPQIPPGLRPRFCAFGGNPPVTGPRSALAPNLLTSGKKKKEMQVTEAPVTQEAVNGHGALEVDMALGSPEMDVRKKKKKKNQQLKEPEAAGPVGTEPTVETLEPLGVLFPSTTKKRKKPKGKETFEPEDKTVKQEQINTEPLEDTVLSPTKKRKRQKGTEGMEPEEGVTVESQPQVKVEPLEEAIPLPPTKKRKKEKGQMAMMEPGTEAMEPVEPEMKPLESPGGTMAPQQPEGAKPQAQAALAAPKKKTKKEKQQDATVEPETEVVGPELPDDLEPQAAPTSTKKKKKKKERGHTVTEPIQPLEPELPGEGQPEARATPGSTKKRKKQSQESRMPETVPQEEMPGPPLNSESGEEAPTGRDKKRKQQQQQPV
UniProt O95602, 1060-1155: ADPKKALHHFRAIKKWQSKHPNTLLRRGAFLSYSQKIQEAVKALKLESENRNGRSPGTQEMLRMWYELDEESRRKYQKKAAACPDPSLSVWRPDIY
Core Factor (Saccharomyces cerevisiae), one chain, as listed by the source, chain 3 of 3: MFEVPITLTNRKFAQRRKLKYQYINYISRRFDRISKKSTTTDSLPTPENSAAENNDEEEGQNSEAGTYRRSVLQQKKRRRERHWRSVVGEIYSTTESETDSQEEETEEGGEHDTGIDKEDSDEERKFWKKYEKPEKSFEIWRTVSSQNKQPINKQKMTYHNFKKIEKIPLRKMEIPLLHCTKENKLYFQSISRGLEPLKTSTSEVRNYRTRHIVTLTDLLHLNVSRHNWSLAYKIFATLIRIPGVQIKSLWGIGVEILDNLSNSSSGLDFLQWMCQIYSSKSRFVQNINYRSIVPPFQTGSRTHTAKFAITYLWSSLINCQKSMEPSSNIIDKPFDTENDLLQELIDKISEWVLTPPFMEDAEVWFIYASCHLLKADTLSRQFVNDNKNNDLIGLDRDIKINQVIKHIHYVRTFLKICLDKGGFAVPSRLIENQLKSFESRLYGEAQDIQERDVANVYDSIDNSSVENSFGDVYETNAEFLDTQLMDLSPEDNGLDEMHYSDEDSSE
A49/A34.5 heterodimer (Saccharomyces cerevisiae), one chain, as listed by the source, chain 1 of 2: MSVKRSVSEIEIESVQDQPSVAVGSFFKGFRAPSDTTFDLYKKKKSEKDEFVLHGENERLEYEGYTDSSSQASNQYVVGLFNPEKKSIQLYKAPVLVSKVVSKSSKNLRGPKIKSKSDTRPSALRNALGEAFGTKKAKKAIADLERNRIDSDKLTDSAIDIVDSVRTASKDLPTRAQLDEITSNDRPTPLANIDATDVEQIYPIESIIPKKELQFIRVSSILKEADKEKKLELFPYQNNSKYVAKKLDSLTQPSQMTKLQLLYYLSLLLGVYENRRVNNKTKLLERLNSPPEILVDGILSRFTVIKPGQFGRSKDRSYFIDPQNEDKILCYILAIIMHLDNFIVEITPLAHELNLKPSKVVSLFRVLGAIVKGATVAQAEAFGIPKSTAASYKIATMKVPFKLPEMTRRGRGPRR
A49/A34.5 heterodimer (Saccharomyces cerevisiae), one chain, as listed by the source, chain 2 of 2: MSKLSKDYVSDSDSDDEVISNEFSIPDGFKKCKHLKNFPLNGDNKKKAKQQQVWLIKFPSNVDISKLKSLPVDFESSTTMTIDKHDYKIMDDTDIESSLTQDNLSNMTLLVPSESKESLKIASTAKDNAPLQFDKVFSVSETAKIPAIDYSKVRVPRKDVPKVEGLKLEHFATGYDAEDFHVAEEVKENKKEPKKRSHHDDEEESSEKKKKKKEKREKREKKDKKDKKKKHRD
RPA49FL/RPA34(1-343) (Homo sapiens), one chain, as listed by the source, chain 2 of 2: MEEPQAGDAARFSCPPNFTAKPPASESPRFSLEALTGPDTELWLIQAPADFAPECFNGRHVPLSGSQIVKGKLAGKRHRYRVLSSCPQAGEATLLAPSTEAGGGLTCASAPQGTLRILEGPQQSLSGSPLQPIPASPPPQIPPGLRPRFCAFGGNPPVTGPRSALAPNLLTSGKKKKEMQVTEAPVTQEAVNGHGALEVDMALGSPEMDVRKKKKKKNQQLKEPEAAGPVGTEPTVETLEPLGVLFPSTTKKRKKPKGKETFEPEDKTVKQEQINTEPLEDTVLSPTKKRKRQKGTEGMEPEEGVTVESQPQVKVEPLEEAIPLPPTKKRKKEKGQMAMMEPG
RPA49FL/RPA34(1-343) (Homo sapiens), one chain, as listed by the source, chain 1 of 2: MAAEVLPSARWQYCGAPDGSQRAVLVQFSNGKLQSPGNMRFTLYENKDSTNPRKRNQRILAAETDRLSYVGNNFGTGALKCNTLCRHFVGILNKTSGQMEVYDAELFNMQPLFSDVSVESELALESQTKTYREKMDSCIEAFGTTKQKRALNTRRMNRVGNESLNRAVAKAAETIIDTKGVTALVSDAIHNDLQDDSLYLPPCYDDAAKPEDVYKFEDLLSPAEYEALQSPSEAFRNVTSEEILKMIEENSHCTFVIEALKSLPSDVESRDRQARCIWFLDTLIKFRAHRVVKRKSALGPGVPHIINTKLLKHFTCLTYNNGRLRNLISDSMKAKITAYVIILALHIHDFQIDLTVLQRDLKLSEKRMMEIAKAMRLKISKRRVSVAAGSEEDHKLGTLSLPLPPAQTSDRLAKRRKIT
Core Factor (Saccharomyces cerevisiae), one chain, as listed by the source, chain 1 of 3: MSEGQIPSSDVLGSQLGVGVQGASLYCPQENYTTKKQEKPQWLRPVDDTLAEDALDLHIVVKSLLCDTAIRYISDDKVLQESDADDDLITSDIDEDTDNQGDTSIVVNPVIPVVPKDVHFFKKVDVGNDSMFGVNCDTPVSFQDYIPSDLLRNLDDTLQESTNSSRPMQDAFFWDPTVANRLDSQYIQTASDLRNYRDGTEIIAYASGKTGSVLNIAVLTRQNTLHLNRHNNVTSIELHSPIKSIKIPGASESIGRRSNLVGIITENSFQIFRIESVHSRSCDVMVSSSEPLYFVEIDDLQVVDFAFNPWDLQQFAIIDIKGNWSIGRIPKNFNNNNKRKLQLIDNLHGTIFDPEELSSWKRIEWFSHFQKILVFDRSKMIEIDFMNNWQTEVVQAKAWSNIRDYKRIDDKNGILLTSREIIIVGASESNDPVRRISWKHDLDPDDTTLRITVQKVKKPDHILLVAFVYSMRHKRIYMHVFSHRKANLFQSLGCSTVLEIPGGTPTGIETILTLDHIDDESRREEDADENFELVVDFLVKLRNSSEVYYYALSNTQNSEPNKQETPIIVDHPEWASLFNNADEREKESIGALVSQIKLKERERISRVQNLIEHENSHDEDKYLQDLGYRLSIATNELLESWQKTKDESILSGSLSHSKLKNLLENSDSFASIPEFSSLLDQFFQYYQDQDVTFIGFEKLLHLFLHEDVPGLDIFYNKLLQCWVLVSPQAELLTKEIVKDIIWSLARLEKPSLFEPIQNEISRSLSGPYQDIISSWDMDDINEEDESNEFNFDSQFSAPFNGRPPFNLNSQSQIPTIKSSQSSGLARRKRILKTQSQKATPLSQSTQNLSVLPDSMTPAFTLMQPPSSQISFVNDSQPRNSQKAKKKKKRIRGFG
Core Factor (Saccharomyces cerevisiae), one chain, as listed by the source, chain 2 of 3: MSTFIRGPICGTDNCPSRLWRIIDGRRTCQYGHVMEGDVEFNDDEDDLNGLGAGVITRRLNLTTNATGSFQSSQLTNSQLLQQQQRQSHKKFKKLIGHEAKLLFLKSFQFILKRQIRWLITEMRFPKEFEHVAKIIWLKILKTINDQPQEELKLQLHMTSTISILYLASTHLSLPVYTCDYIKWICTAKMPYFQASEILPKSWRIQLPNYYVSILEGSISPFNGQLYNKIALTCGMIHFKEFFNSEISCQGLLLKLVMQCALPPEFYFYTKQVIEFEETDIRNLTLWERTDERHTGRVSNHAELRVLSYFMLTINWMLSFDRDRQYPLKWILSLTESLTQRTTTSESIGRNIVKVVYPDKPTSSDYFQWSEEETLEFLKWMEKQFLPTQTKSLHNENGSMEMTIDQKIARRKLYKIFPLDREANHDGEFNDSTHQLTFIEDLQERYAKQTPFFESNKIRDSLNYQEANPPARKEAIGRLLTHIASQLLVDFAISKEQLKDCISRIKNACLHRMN

What all share (test): EMSA
Background: In EMSA bound probe runs differently from free probe, usually more slowly.

Data set [1] deals with A49/A34.5 heterodimer (Saccharomyces cerevisiae). The note with it: EMSA: 100 fmol DNA, up to 50x protein, RT 30 min; buffer 1: 10 mM Tris pH 7.5, 50 mM NaCl, 1 mM MgCl2, 4% glycerol, 0.5 mM EDTA, 0.5 mM DTT; recombinant …; protein details: C-term 6xHis on A49; label: 5'-Cy5 on strand 1.
The test system of data set [2] is Core Factor (Saccharomyces cerevisiae). As to conditions: positive control; EMSA: 100 fmol DNA, up to 50x protein, RT 30 min; buffer 1: 10 mM Tris pH 7.5, 50 mM NaCl, 1 mM MgCl2, 4% glycerol, 0.5 mM EDTA, 0.5 mM DTT; recombinant protein; label: 5'-Cy5 on strand 1.
For data set [3], the system named is MBP-6xHis tag only. As to conditions: negative control; EMSA: 100 fmol DNA, up to 50x protein, RT 30 min; buffer 1: 10 mM Tris pH 7.5, 50 mM NaCl, 1 mM MgCl2, 4% glycerol, 0.5 mM EDTA, 0.5 mM DTT; recombinant protein; protein details: MBP-6xHis; label: 5'-Cy5 on strand 1.
Data set [4] concerns the target RPA34(131-510) (Homo sapiens) (UniProt O15446). The note with it: EMSA: 100 fmol DNA, up to 50x protein, RT 30 min; buffer 1: 10 mM Tris pH 7.5, 50 mM NaCl, 1 mM MgCl2, 4% glycerol, 0.5 mM EDTA, 0.5 mM DTT; recombinant …; residues 131-510; protein details: N-term 6xHis; label: 5'-Cy5 on strand 1.
Data set [5] concerns RPA49FL/RPA34(1-343) (Homo sapiens). The note with it: EMSA: 100 fmol DNA, up to 50x protein, RT 30 min; buffer 1: 10 mM Tris pH 7.5, 50 mM NaCl, 1 mM MgCl2, 4% glycerol, 0.5 mM EDTA, 0.5 mM DTT; recombinant …; protein details: N-term 6xHis on RPA49, RPA34 untagged; label: 5'-Cy5 on strand 1.
Data set [6] concerns the target dock II full-length (RPA1 foot HMG-like domain) (Homo sapiens) (UniProt O95602). As to conditions: residual binding at 50x protein excess; EMSA: 100 fmol DNA, up to 50x protein, RT 30 min; buffer 1: 10 mM Tris pH 7.5, 50 mM NaCl, 1 mM MgCl2, 4% glycerol, 0.5 mM EDTA, 0.5 mM DTT; recombinant protein; residues 1060-1155; protein details: C-term His-MBP; label: 5'-Cy5 on strand 1.

For part of these data: Weaker means in comparison with the reference protein, sequence or condition of that experiment. For part of these data: Construct, isoform or probe ends are uncertain for at least one entry. For part of these data: Negatives hold for the conditions tested. For part of these data: At least one verdict was read from the data and is not stated in words by the source.

As for “CTGGAACAACACTCAACCCTATCTCGGTCTATTCTTTTGA (double strand) [EMSA-DNA 40 bp]”, the binding result in data set [1] is on record as “binds”; in data set [2], “binds”; in data set [3], “no binding”; in data set [4], “binds”; in data set [5], “binds”; in data set [6], “binds more weakly”.
